Results published in PubChem BioAssay AID1347075 (National Center for Advancing Translational Sciences (NCATS), 2019).
Several values for one entry are separate records, joined by “and”; a condition that tells them apart may be missing. Equal entries are not always repeated. In all, about 400,000 compounds went through this assay and about 5,500 (1.4%) were called active. Inconclusive results, whose numbers are uncertain, are shown with a selection of clear calls. The call rests on the fitted dose curve; in most records, active means well fitted cell-killing curve with a large enough effect; inconclusive means small, poorly fitted or top-dose-only effect, or effect the other way; inactive means flat fitted curve, though single readings scatter. Potencies of inconclusive entries are doubtful fits and often do not repeat. The source holds several records for some structures; these can differ, active in one and inactive in another.

experiment: qHTS assay for MDR1-selective chemotherapeutics: Primary screen using the parental adenocarcinoma cell KB-3-1; conditions: KB-3-1 viability, CellTiter-Glo ATP luminescence, 72 h; activity change, negative = cytotoxic: at 46.1 µM (top of the series); further: nearly all actives have a fitted effect of over 60% in size
Method in brief: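 Multi-concentration cytotoxicity screen in KB-3-1 cells grown in DMEM lacking phenol red with 10% FBS. After 72 h at 37 °C with compound, ATP-dependent luminescence was recorded.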
On the % scale 0 is the no-effect control and ±100 the full control effect; potency means the concentration at half of the fitted maximal effect.

Row | SMILES | Potency | activity change, negative = cytotoxic
1 | COc1ccc(NC(=O)c2ccc(NC(=O)CN3CCN(c4ccccc4)CC3)cc2)cc1 | inconclusive: 32.6 µM [rising, partial curve, poor fit] | 
2 | CN1CCCCCC1=Nc1ccc([N+](=O)[O-])cc1 | inactive | 
3 | CCOC(=O)c1c(-c2ccccc2)oc2ccc(O)c(CN(C)C)c12 | inactive | 
4 | CCN(CC)CCC(c1ccc2c(c1)OCO2)c1c(O)cc(OC)cc1OC (stereo not drawn) | inactive | 
5 | CCOC(=O)c1ccc(NC(=O)c2nc[nH]c2C(=O)N[C@H](C)CO)cc1 | inconclusive: 20.6 µM [cytotoxic, partial curve, poor fit] | 
6 | CCN1C/C(=C/c2ccc(OC)c(O)c2)C(=O)/C(=C/c2ccc(OC)c(O)c2)C1 | inactive | 
7 | CCN1CCN(Cc2ccc(NC(=O)c3ccc(C)c(NC(=O)C(=O)c4c[nH]c5ccccc45)c3)cc2C(F)(F)F)CC1 | inconclusive: 29.1 µM [cytotoxic, single point] and inconclusive: 18.4 µM [cytotoxic, single point] | 
8 | Cc1ccc2c(c1)-c1onc(C(=O)N(C)c3cccc(C(F)(F)F)c3)c1CO2 | inconclusive: 0.0366 µM [rising, full curve] | 
9 | COc1ccccc1-c1cnn2c(NCc3ccccc3)cc(C)nc12 | inactive | 
10 | CC1(C)Cc2c(c(N3CCOCC3)nc3sc(C(=O)Nc4ccc(Cl)cc4)c(N)c23)CO1 | active: 16.4 µM | 
11 | Cc1c(NC(=O)Cn2nc(C(=O)O)c3ccccc3c2=O)c(=O)n(-c2ccccc2)n1C | inconclusive: 11.6 µM [rising, partial curve, poor fit] | 
12 | CCOC(=O)COc1ccc(/C=C(\C#N)c2nc3ccc(C)cc3[nH]2)cc1OC | active: 18.4 µM | 
13 | Cc1ccccc1Cn1c(=N)n(CC(=O)c2ccco2)c2ccccc21 | inconclusive: 29.1 µM [cytotoxic, single point] | 
14 | O=C(Nc1ccc(Cl)c(C(=O)N2CCOCC2)c1)c1ccccc1 | inactive | 
15 | COc1ccc(CCNC(=O)c2cnn3c2NC(=C2CC2)C=C3C(F)F)cc1OC | inconclusive: 29.1 µM [cytotoxic, single point] | 
16 | O/N=C/c1cn(-c2ccccc2)nc1-c1cccnc1 | inactive | 
17 | O=C(Nc1nc2ccc(Cl)cc2s1)C1CC1 | inconclusive: 2.31 µM [cytotoxic, partial curve, poor fit] | 
18 | O=C(NC1CCCCC1)c1cc(S(=O)(=O)N2CCN(c3ccccc3)CC2)ccc1Cl | inactive | 
19 | O=C(NC(=S)Nc1ccc(Br)cn1)c1cccs1 | inactive | 
20 | COc1ccc(C2c3c(oc4ccccc4c3=O)C(=O)N2c2ccccn2)cc1OC (stereo not drawn) |  | inconclusive: 6.31%
21 | O=C(NN=Cc1ccc(Cl)cc1Cl)C1CC1 | inactive | 
22 | COc1ccccc1N(C)S(=O)(=O)c1ccc(C(=O)NNC(=O)c2ccccc2O)cc1 | inconclusive: 0.651 µM [cytotoxic, full curve, poor fit] | 
23 | Cn1c(-c2cccs2)[n+](C)c2ccccc21 | inconclusive: 20.6 µM [cytotoxic, single point] | 

Row | SMILES | Potency | activity change, negative = cytotoxic
24 | COc1ccc(CCNC(=O)c2csc3c2CCCCC3)c(OC)c1 | inconclusive: 0.0065 µM [cytotoxic, full curve, poor fit] | 
25 | CCCCCc1c(Cc2ccccc2)ncn1CCc1ccccc1OC | active: 16.4 µM | 
26 | Cc1cc(-c2ccc(C(C)C)c(S(=O)(=O)N3CCOc4ccccc43)c2)on1 | inconclusive: 16.4 µM [cytotoxic, single point] | 
27 | Cc1cccc(NC(=O)c2cc3c(=O)n4ccccc4nc3s2)c1 | inconclusive: 29.1 µM [rising, partial curve, poor fit] | 
28 | O=C(CSc1ccccc1C(=O)NCc1ccccc1)NC12CC3CC(CC(C3)C1)C2 | inconclusive: 29.1 µM [cytotoxic, single point] | 
29 | CC(=O)Nc1cccc(-c2ccnc3c2CC(C(=O)NCc2ccco2)O3)c1 (stereo not drawn) | active: 5.8 µM | 
30 | COc1ccc(CNc2ccc(Cl)cc2)cc1Cn1ccnc1 | inactive | 
31 | COC(=O)[C@@]1(Cc2ccc(F)cc2)[C@H]2c3cc(C(=O)N4CCCC4)n(Cc4ccc(Cl)c(C(F)(F)F)c4)c3C[C@H]2CN1C(=O)c1ccccc1 | inconclusive: 18.4 µM [cytotoxic, single point] | 
32 | CCCCNC(=O)c1onc(CSc2ccccc2CC)c1C(=O)O | inconclusive: 29.1 µM [cytotoxic, single point] | 
33 | CCCn1c(N)c(N(CCOC)C(=O)c2ccc(N(C)S(=O)(=O)c3ccc(C)cc3)cc2)c(=O)[nH]c1=O | inconclusive: 32.6 µM [cytotoxic, single point] | 
34 | Cc1cc(/C=C2/C(=O)N(C)C(=S)N2C)c(C)n1C1CC1 |  | inconclusive: -2.54%
35 | COc1ccc(-c2nn(CC(=O)NCCc3ccccc3)c(=S)n2C)cc1 | inconclusive: 18.4 µM [cytotoxic, single point] | 
36 | Cc1nc(N(C)Cc2ccccc2)c2c(C)c(C)sc2n1 | inconclusive: 18.4 µM [cytotoxic, single point] | 
37 | Cn1nc(-c2ccc(N3CCCCC3)c(NC(=O)c3ccco3)c2)c2ccccc2c1=O | active: 8.2 µM | 
38 | O=C(Nc1ccc(Cl)cc1)c1ccc2oc(=O)n(Cc3ccccc3)c2c1 | inactive | 
39 | COc1cccc(C(=O)N2CCCN(C)CC2)c1OC | inactive | 
40 | COc1ccc2cc(CN(Cc3cccnc3)S(=O)(=O)c3ccccc3)c(=O)[nH]c2c1 | inconclusive: 16.4 µM [cytotoxic, single point] | 
41 | Cc1cc2c(cc1C)-c1c(ssc1=Nc1ccc(S(N)(=O)=O)cc1)C(C)(C)N2 | inactive | 
42 | CCn1nc(C)c(CNC(=O)c2cc(COc3ccc(F)cc3Cl)on2)c1C | inconclusive: 6.51 µM [cytotoxic, full curve, poor fit] | 
43 | C[C@@H]1[C@H]2[C@@H](O[C@@H]3O[C@H](CO)[C@@H](O)[C@H](O)[C@H]3O)OC=C(C(=O)O)[C@H]2C[C@@H]1O | inconclusive: 29.1 µM [cytotoxic, single point] | 
44 | CN(C)S(=O)(=O)NCC1CCCN(Cc2ccc(-c3ccccc3)cc2)C1 (stereo not drawn) | inconclusive: 23.1 µM [cytotoxic, single point] | 
45 | CCNc1ccc(Br)cc(C(=O)/C=C/c2ccc(Cl)cc2Cl)c1=O | inconclusive: 29.1 µM [cytotoxic, single point] | 
46 | CCN(C(=O)CN1C(=O)S/C(=C\c2cccc(Cl)c2)C1=O)C1CCS(=O)(=O)C1 (stereo not drawn) | inconclusive: 14.6 µM [cytotoxic, single point] | 

Row | SMILES | Potency | activity change, negative = cytotoxic
47 | CC(OC(=O)c1ccc(S(=O)(=O)NCc2ccco2)cc1)C(=O)Nc1ncc(Cl)cc1Cl (stereo not drawn) | inactive | 
48 | COCOCCn1cc(CN2CCS(=O)(=O)N(Cc3ccc(-c4ccc(F)cc4)cc3)C(CC(C)C)C2=O)nn1 (stereo not drawn) | inconclusive: 29.1 µM [cytotoxic, single point] | 
49 | O=c1c2cc([N+](=O)[O-])cc([N+](=O)[O-])c2[nH]n1-c1ccccc1 | inconclusive: 2.31 µM [cytotoxic, full curve, poor fit] | 
50 | COc1cc(CNc2ncc(-c3ccc(Br)cc3)n2C)cc(OC)c1O | inactive | 
51 | CCOc1ccc(S(=O)(=O)NCCC(=O)NCCOc2ccccc2OC)cc1 |  | inconclusive: -1.79%
52 | O=Cc1cccc(OCc2cccc3ccccc23)c1 | inactive | 
53 | COc1ccccc1N1CCN(C(c2cccs2)C(C)NS(=O)(=O)c2ccccc2)CC1 (stereo not drawn) | inconclusive: 23.1 µM [cytotoxic, single point] | 
54 | CC(C)C(C)NC(=O)CN1C(=O)NC(C)(c2ccc3ccccc3c2)C1=O (stereo not drawn) | inconclusive: 0.0046 µM [rising, full curve] | 
55 | CCc1cccc2c(C(O)c3c[nH]c4ccccc34)c[nH]c12 (stereo not drawn) | inconclusive: 29.1 µM [cytotoxic, single point] | 
56 | COc1ccc(C2C3=C(COC3=O)Oc3cc4c(cc32)OCO4)cc1OC (stereo not drawn) | inconclusive: 4.61 µM [cytotoxic, full curve, poor fit] and active: 920 nM | 
57 | CCOC(=O)c1ccc(N2C(=O)c3[nH]nc(-c4ccc(C)cc4)c3C2c2ccc(O)cc2)cc1 (stereo not drawn) | inconclusive: 20.6 µM [cytotoxic, single point] | 
58 | Cn1c(=O)oc2cc(S(=O)(=O)N3CCC(C(=O)N4CCN(c5ccccc5)CC4)CC3)ccc21 | inconclusive: 29.1 µM [cytotoxic, single point] | 
59 | Cc1cc(N2CCOCC2)nc(SCc2c(Cl)cccc2Cl)n1 | inconclusive: 29.1 µM [cytotoxic, single point] | 
60 | COc1ccc([C@@H]2C[C@@H](c3ccccc3)Oc3cc(OC)cc(OC)c32)cc1 | inactive | 
61 | Nc1cccc2c1C(=O)N(CC(=O)NC13CC4CC(CC(C4)C1)C3)C2=O | inactive | 
62 | CN(c1ccccc1)S(=O)(=O)c1cccc(NC(=O)CCNC(=O)c2ccc([N+](=O)[O-])cc2)c1 | inactive | 
63 | Cc1nn(CC(=O)N2c3ccccc3NC(=O)C2(C)C)c(C)c1[N+](=O)[O-] | inactive | 
64 | CCOC(=O)c1ccc(-c2ccc(/C=N/NC(=O)c3cncc(Br)c3)o2)cc1 | inactive | 
65 | CCOc1ccc(N2C(N)=NC(N)=NC2(C)C)cc1 | inconclusive: 29.1 µM [cytotoxic, single point] | 
66 | COc1ccc(Cc2nnc(NC(=O)c3ccccc3F)s2)cc1 | inactive | 
67 | Cc1c(C(=O)NCc2ccc(F)cc2)sc(=O)n1Cc1ccc(Cl)c(Cl)c1 | inconclusive: 29.1 µM [cytotoxic, single point] | 
68 | COc1cccc(-c2cc(=O)c3cc(NC(=O)c4ccc(N(C)C)cc4)ccc3[nH]2)c1 | inactive | 

Of the compounds above, these have bromine.
Row | SMILES | Potency | activity change, negative = cytotoxic
19 | O=C(NC(=S)Nc1ccc(Br)cn1)c1cccs1 | inactive | 
45 | CCNc1ccc(Br)cc(C(=O)/C=C/c2ccc(Cl)cc2Cl)c1=O | inconclusive: 29.1 µM [cytotoxic, single point] | 
50 | COc1cc(CNc2ncc(-c3ccc(Br)cc3)n2C)cc(OC)c1O | inactive | 
64 | CCOC(=O)c1ccc(-c2ccc(/C=N/NC(=O)c3cncc(Br)c3)o2)cc1 | inactive | 
